Source: PubChem BioAssay AID624291 (National Center for Advancing Translational Sciences (NCATS), 2012)
The campaign covered roughly 350,000 compounds. About 220 (0.063%) were called active. Inconclusive results, whose numbers are uncertain, are shown with a selection of clear calls. The call rests on the fitted dose curve; in most records, active means well fitted activation curve with a large enough effect; inconclusive means small, poorly fitted or top-dose-only effect; inactive means no such curve, though single readings can be large or run the other way. Potencies of inconclusive entries are doubtful fits and often do not repeat.

Test: qHTS for Activators of Integrin-Mediated Alleviation for Muscular Dystrophy; further: nearly all actives have a fitted effect of over 60% in size;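 on activation: 100% = response of the positive control SU9516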
Details: alpha7betagal myoblasts, beta-gal FDG fluorescence, 48 h; activation: at 38.3 µM (top of the series)
Procedure, shortened: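 Alpha7betagal+/- myoblasts (passage 13) were plated 16-24 hr, then exposed to compounds (1:260 dilution of DMSO stock) for 48 hours at 37C. After MPER lysis, β-galactosidase reporter activity was read as FDG fluorescence (ex 480/em 540) after 30 minutes.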
Potency means the concentration at half of the fitted maximal effect.

activation, inconclusive:
O=C(c1ccc(S(=O)(=O)Nc2ccc(F)cc2)cc1)N1CCN(c2ccccn2)CC1 -52.5% [activator]

activation, inactive:
Oc1c(N=NC(=S)Nc2ccccc2F)c2ccccc2n1Cc1ccc(Cl)cc1 0%
CCOc1cc(/C=N/NC(=O)c2nn(C)cc2Br)ccc1OCc1ccccc1Cl 0%
COc1ccc2c(c1)O[C@H](c1ccc3c(c1)OCO3)[C@@H](OC(=O)N[C@H]1CCCc3ccccc31)C2=O -3.63%
C/C(=N\NC(=O)c1ccccc1)c1ccc(N2CCCCC2)cc1 -11.4%
NC(=O)c1ccccc1NC(=O)CSC1=NCCS1 -51.5%
COc1ccc2c(CC(=O)OCC(=O)N(C)c3c(N)n(Cc4ccccc4)c(=O)[nH]c3=O)coc2c1 7.16%
CCC(C(=O)O)N1C(=O)/C(=C/c2cccn2C)SC1=S (stereo not given) -8.06%
Cc1ccc(NC(=O)c2ccc(NCCN)c([N+](=O)[O-])c2)cc1 -1.69%
O=C(Cc1ccccc1[N+](=O)[O-])OCC(=O)N1CCN(c2ccccc2)CC1 -13.6%
CCN(CC)CCn1c(=S)[nH]c2cc(C(=O)NCc3ccccc3Cl)ccc2c1=O -23.6%
Cc1cccc(NC(=S)NN(Cc2ccccc2)c2ccccc2)c1C 19.8%
c1csc(-c2cn3ccc4ccccc4c3n2)c1 0%
COc1ccc(C(=O)Nn2c(SCC(=O)NCC3CCCO3)nc3ccccc3c2=O)cc1 (stereo not given) 1.08%
O=C(/C=C/c1ccc(S(=O)(=O)N2CCOCC2)cc1)NCc1ccc(Cl)cc1 0.314%
C=CCn1c(-c2c(C)nc3cc(C)ccn23)n[nH]c1=S 18.4%
CCOC(=O)CSc1nnc(NC(=O)CN2CCCCC2)s1 0%
Cc1[nH]c2ccccc2c1/C=C/c1nc2ccccc2c(=O)[nH]1 -2.08%
Oc1cc2c(cc1CN1CCc3ccccc3C1)OCO2 1.64%
CCn1cc([N+](=O)[O-])c(C(=O)N2N=C(c3ccc(Cl)c(Cl)c3)CC2c2ccccc2O)n1 (stereo not given) -20.5%
CC(=O)c1ccc(S(=O)(=O)N(C)CC(=O)N2CCCCCC2)cc1 0%
O=C(Nc1nc2ccccc2[nH]1)c1cccc([N+](=O)[O-])c1 -30.4%
Cc1ccc(NC(=O)CSc2nc3ccccc3c(=O)n2CCCC(=O)N2CCCC2)cc1 11.1%
CNS(=O)(=O)c1ccc(NC(=O)C2c3ccccc3Oc3ccccc32)cc1 9.5%
CN(C)CCNC(=O)/C(=C/c1ccc(-c2ccc(Cl)cc2)o1)NC(=O)c1ccccc1 0%

Potency, inconclusive:
COc1cc(NC2c3ncccc3C(=O)N2Cc2ccco2)cc(OC)c1OC (stereo not given) 10 µM [activator, partial curve, poor fit]
N#Cc1cc2cc3ccccc3nc2n2c(=O)c3ccccc3nc12 3.16 µM [activator, partial curve, poor fit]
COc1ccc(C(=O)N[C@H](C(=O)Nc2ccc(S(=O)(=O)N3CCOCC3)cc2)C(C)C)cc1 3.98 µM [activator, single point]
O=C(CCCN1C(=O)/C(=C/c2cccs2)SC1=S)Nc1cc([N+](=O)[O-])ccc1O 3.16 µM [activator, single point]
CN(Cc1ccccc1)C(=O)COc1ccc(C(C)(C)C)cc1 5.01 µM [activator, single point]
CCC1CCCCN1CCCNC(=O)Cn1c(=O)c2cccn2c2ccccc21 (stereo not given) 0.891 µM [activator, single point]
OCCC1CN(Cc2cccn2-c2nccs2)CCN1CCc1ccccc1 (stereo not given) 1.12 µM [activator, single point]
Cc1nc(N)sc1-c1ccccc1 0.355 µM [activator, full curve, poor fit]
COc1ccc(CC(=O)NCC(=O)Nc2ccccc2Br)cc1 10 µM [activator, single point]
O=C(NCC1CCCO1)C1CCCCN1S(=O)(=O)c1ccc(F)cc1 (stereo not given) 2.82 µM [activator, single point]
COc1ccccc1-n1c(C)nc2cc(C(=O)NCC3CCCO3)ccc21 (stereo not given) 3.55 µM [activator, single point]
N#Cc1c(-c2ccccc2)nc(SCC(=O)Nc2nnc(C(F)(F)F)s2)[nH]c1=O 12.6 µM [activator, single point]
O=C(COC(=O)COc1ccc(Cl)cc1)NC1CCCC1 1.78 µM [activator, partial curve, poor fit]
CCCC1(c2ccccc2)NC(=O)N(CC(=O)N(C)Cc2c(F)cccc2Cl)C1=O (stereo not given) 2.51 µM [activator, single point]
O=C(Nc1ccccc1Cl)O/N=C/c1ccc(F)cc1 28.2 µM [activator, single point]
O=C(/C=C/c1cc([N+](=O)[O-])ccc1OC(F)F)Nc1cccc(OC(F)F)c1 10 µM [activator, single point]
CCc1nnc(N/N=C/c2cccs2)n1N 10 µM [activator, partial curve, poor fit]
O=C(C1COc2ccccc2O1)N1CCN(c2nc3c(F)cc(F)cc3s2)CC1 (stereo not given) 5.01 µM [activator, single point]
CC(=O)c1ccc(NC(=O)c2onc(C)c2Cl)cc1 6.31 µM [activator, partial curve, poor fit]
C=CCn1c(/N=C/c2ccc(OC)cc2)nc2ccccc21 2 µM [activator, partial curve, poor fit]
CC/C(O)=C1\C(=O)CC(C)(C)CC1=NCCc1nc2ccccc2[nH]1 2.82 µM [activator, partial curve, poor fit]
O=C(NC1CCCC1)c1cc2c(=O)n3ccccc3nc2s1 5.01 µM [activator, single point]
Cc1cc(C)cc(-n2ccn(CC(=O)NCCc3ccccc3)c(=O)c2=O)c1 28.2 µM [activator, single point]
Nc1ccccc1/C=N\N=C/c1ccccc1N 5.01 µM [activator, single point]
CCCNC(=O)c1cc2cc([N+](=O)[O-])ccc2s1 28.2 µM [activator, single point]
Cc1ccc(-c2nn(-c3ccccn3)c(=O)c3ccccc23)cc1C 1.12 µM [activator, partial curve, poor fit]
O=c1c2ccccc2nc(/C=C/c2cccc(Br)c2)n1CCCO 2.24 µM [activator, partial curve, poor fit]
COCCn1c(SCC(=O)NN2C(=O)NC(C)(c3ccccc3)C2=O)nnc1-c1ccncc1 (stereo not given) 2.24 µM [activator, single point]
CCNC(=O)CSc1nc2cc(S(=O)(=O)Nc3ccc(OC)cc3)ccc2o1 0.501 µM [activator, full curve, poor fit]
O=C(COc1ccc2c3c(c(=O)oc2c1)CCCC3)NCc1ccccn1 2.82 µM [activator, single point]
O=C(CCn1c(=S)[nH]c2cc3c(cc2c1=O)OCO3)NCc1cccc(Cl)c1 2.82 µM [activator, single point]
Cc1ccc(CN2CCN(C3CSCCSC3)CC2CCO)cc1 (stereo not given) 11.2 µM [activator, partial curve, poor fit]
CCOC(=O)c1oc2cc(C)cc(C)c2c1C 2.82 µM [activator, partial curve, poor fit]
Nn1c(SCc2ccccc2)nc2ccccc21 0.501 µM [activator, full curve, poor fit]
O=C(COC(=O)c1ccc2c(c1)C(=O)N(Cc1ccncc1)C2=O)Nc1cccc2ccccc12 1.12 µM [activator, partial curve, poor fit]
Cc1nc(C)n(C(C)CC(=O)O)n1 (stereo not given) 2.82 µM [activator, partial curve, poor fit]
COc1ccc(CCC(=O)Nc2ccc(N3CCOCC3)c(S(=O)(=O)Nc3ccc(OC)cc3)c2)cc1 11.2 µM [activator, partial curve, poor fit]
CC1Cc2cc(/C(O)=C3\C(=O)C(=O)N(Cc4ccncc4)C3c3ccccc3F)ccc2O1 (stereo not given) 3.16 µM [activator, single point]
CN(C(=O)C1CCN(S(=O)(=O)c2cccc3nonc23)CC1)C1CCCCC1 22.4 µM [activator, single point]
O=C(Nc1ccccc1O)N1c2ccccc2Sc2ccccc21 28.2 µM [activator, single point]
NC(=O)c1ccc(Nc2ccc([N+](=O)[O-])cc2[N+](=O)[O-])cc1 2.82 µM [activator, partial curve, poor fit]
CCOC(=O)c1[nH]cnc1C(=O)Nc1ccc(Cl)cc1 2.82 µM [activator, single point]
CN(C)C(=O)CN1C(=O)NC2(CCCc3ccccc32)C1=O (stereo not given) 5.01 µM [activator, single point]
Cc1cc(-c2nc(-c3ccc(C(C)(C)C)cc3)no2)no1 11.2 µM [activator, single point]

Arranged by molecular weight (rising): some entries from above
Potency, inconclusive:
CCOC(=O)c1oc2cc(C)cc(C)c2c1C 2.82 µM [activator, partial curve, poor fit]
CC(=O)c1ccc(NC(=O)c2onc(C)c2Cl)cc1 6.31 µM [activator, partial curve, poor fit]
Cc1cc(-c2nc(-c3ccc(C(C)(C)C)cc3)no2)no1 11.2 µM [activator, single point]
CCOC(=O)c1[nH]cnc1C(=O)Nc1ccc(Cl)cc1 2.82 µM [activator, single point]
CN(C)C(=O)CN1C(=O)NC2(CCCc3ccccc32)C1=O (stereo not given) 5.01 µM [activator, single point]
NC(=O)c1ccc(Nc2ccc([N+](=O)[O-])cc2[N+](=O)[O-])cc1 2.82 µM [activator, partial curve, poor fit]
O=C(Nc1ccccc1O)N1c2ccccc2Sc2ccccc21 28.2 µM [activator, single point]
CC/C(O)=C1\C(=O)CC(C)(C)CC1=NCCc1nc2ccccc2[nH]1 2.82 µM [activator, partial curve, poor fit]
O=C(COc1ccc2c3c(c(=O)oc2c1)CCCC3)NCc1ccccn1 2.82 µM [activator, single point]
Cc1ccc(CN2CCN(C3CSCCSC3)CC2CCO)cc1 (stereo not given) 11.2 µM [activator, partial curve, poor fit]
COc1ccc(CC(=O)NCC(=O)Nc2ccccc2Br)cc1 10 µM [activator, single point]
CCNC(=O)CSc1nc2cc(S(=O)(=O)Nc3ccc(OC)cc3)ccc2o1 0.501 µM [activator, full curve, poor fit]
O=C(CCCN1C(=O)/C(=C/c2cccs2)SC1=S)Nc1cc([N+](=O)[O-])ccc1O 3.16 µM [activator, single point]
O=C(COC(=O)c1ccc2c(c1)C(=O)N(Cc1ccncc1)C2=O)Nc1cccc2ccccc12 1.12 µM [activator, partial curve, poor fit]
COc1ccc(C(=O)N[C@H](C(=O)Nc2ccc(S(=O)(=O)N3CCOCC3)cc2)C(C)C)cc1 3.98 µM [activator, single point]
COCCn1c(SCC(=O)NN2C(=O)NC(C)(c3ccccc3)C2=O)nnc1-c1ccncc1 (stereo not given) 2.24 µM [activator, single point]

Next part:

Potency, active:
COc1ccccc1C(=O)NCCOc1ccc(C(C)(C)C)cc1 8.91 µM
